This note sets out measurements from PubChem BioAssay AID330 (DTP/NCI, 2004).

This test has as its system P388 leukemia ip, CD2F1 mice, survival T/C. Description: NCI In Vivo Anticancer Drug Screen. Data for tumor model P388 Leukemia (intraperitoneal) in CD2F1 (CDF1) mice. The following applies: T/C endpoint: median survival time, higher T/C = longer survival.
The mark [1] stands for this setting: dose: 50.0 mg/kg/injection, schedule: Q01DX009 (ip), vehicle: saline with Tween-80.
Setting [2] is: dose: 100.0 mg/kg/injection, schedule: Q01DX009 (ip), vehicle: saline with Tween-80.

The list does not hold the whole screen: it gathers tests that were run many times, whatever their T/C, doses with no T/C, and many T/C values between a quarter and a half above the control. Further doses and runs are listed elsewhere. T/C gives the treated animals as a percentage of the vehicle group. Some entries give survivors of the animals treated and no T/C: the source holds a T/C of zero for them, seemingly a mark for toxic or unscored doses. Some survivor counts are full or nearly so, which does not show that the dose was tolerated: the source hardly ever lists a survival T/C far under the control, and the zero likely stands for such cases as well. Counts of survivors are from the toxicity check (mostly the fifth day) where no day follows; animals may have died later. Schedule codes are those of the source, read here as Q, the interval in days (D) or hours (H), X, the number of doses. Additions like (4×) stand for listed records that agree. Where survival is the endpoint, the PubChem record calls one and a half times the control and up active, and a quarter to a half above the control has no call in these data; cut-offs in other NCI protocols can differ. Some entries were tested several times; the results are listed from low to high. Some T/C values carry the count of animals alive at the toxicity check (mostly the fifth day); without a count, all were alive then.

As for `CC1(C)N=C(N)N=C(N)N1c1ccc(CCCCc2ccc(S(=O)(=O)F)cc2Cl)c(Cl)c1`, the T/C runs as follows: (dose: 1.0 mg/kg/injection, schedule: Q03HX016 (ip), vehicle: other) 126 % of control; (dose: 1.98 mg/kg/injection, schedule: Q01DX009 (ip), vehicle: other) 133 % of control; (dose: 2.0 mg/kg/injection, schedule: Q03HX016 (ip), vehicle: other) 139 % of control [9 of 10 alive]; (dose: 2.82 mg/kg/injection, schedule: Q01DX009 (ip), vehicle: other) 133 % of control; (dose: 4.0 mg/kg/injection, schedule: Q03HX016 (ip), vehicle: other) 143 % of control; (dose: 4.03 mg/kg/injection, schedule: Q01DX009 (ip), vehicle: other) 135 % of control. Besides, the T/C runs as follows: (dose: 5.18 mg/kg/injection, schedule: Q01DX005 (ip), vehicle: Klucel (hydroxypropylcellulose) (HPC)) 135 % of control; (dose: 5.76 mg/kg/injection, schedule: Q01DX009 (ip), vehicle: other) 141 % of control; (dose: 6.25 mg/kg/injection, schedule: Q01DX009 (ip), vehicle: saline with Tween-80) 137 and 142 % of control; (dose: 6.48 mg/kg/injection, schedule: Q01DX009 (ip), vehicle: Klucel (hydroxypropylcellulose) (HPC)) 148 % of control; (dose: 8.0 mg/kg/injection, schedule: Q03HX016 (ip), vehicle: other) 149 % of control; (dose: 8.23 mg/kg/injection, schedule: Q01DX009 (ip), vehicle: other) 142 % of control. Further, the T/C reads like this: (dose: 11.76 mg/kg/injection, schedule: Q01DX009 (ip), vehicle: other) 139 % of control [9 of 10 alive]; (dose: 12.5 mg/kg/injection, schedule: Q01DX009 (ip), vehicle: saline with Tween-80) 146, 163 (2×), 174 % of control; (dose: 14.4 mg/kg/injection, schedule: Q01DX005 (ip), vehicle: Klucel (hydroxypropylcellulose) (HPC)) 145 % of control; (dose: 18.0 mg/kg/injection, schedule: Q01DX009 (ip), vehicle: saline with Tween-80, evaluated on day 30) 165, 171, 172 % of control (2×); (dose: 18.0 mg/kg/injection, schedule: Q01DX009 (ip), vehicle: saline with Tween-80, evaluated on day 45) 156 and 191 % of control; (dose: 25.0 mg/kg/injection, schedule: Q01DX009 (ip), vehicle: saline with Tween-80) 130, 155, 168, 194 % of control. Moreover, the T/C (dose: 27.0 mg/kg/injection, schedule: Q01DX009 (ip), vehicle: saline with Tween-80, evaluated on day 30) was 161, 174, 176, 180, 185, 195, 218 % of control; the T/C (dose: 27.0 mg/kg/injection, schedule: Q01DX009 (ip), vehicle: saline with Tween-80, evaluated on day 45) is on record as 153, 166, 181, 194 % of control; the T/C (dose: 27.0 mg/kg/injection, schedule: Q01DX009 (ip), vehicle: saline with Tween-80, evaluated on day 60) was 174 % of control; the T/C (dose: 40.0 mg/kg/injection, schedule: Q01DX009 (ip), vehicle: saline with Tween-80, evaluated on day 30) is listed as 162, 172, 173, 177, 186, 188, 191 % of control; the T/C (dose: 40.0 mg/kg/injection, schedule: Q01DX009 (ip), vehicle: saline with Tween-80, evaluated on day 45) is 156, 178, 190, 194 % of control; the T/C (dose: 40.0 mg/kg/injection, schedule: Q01DX009 (ip), vehicle: saline with Tween-80, evaluated on day 60) was 211 % of control. In addition, the T/C is, setting by setting: (dose: 50.0 mg/kg/injection, schedule: Q01DX009 (ip), vehicle: Klucel (hydroxypropylcellulose) (HPC)) 127 % of control; under setting [1], 93, 99, 108, 190 % of control; (dose: 60.0 mg/kg/injection, schedule: Q01DX009 (ip), vehicle: saline with Tween-80, evaluated on day 30) 180, 189 (2×), 192, 200 (2×), 206 % of control; (dose: 60.0 mg/kg/injection, schedule: Q01DX009 (ip), vehicle: saline with Tween-80, evaluated on day 45) 111, 173, 177, 179, 190, 209 % of control; (dose: 60.0 mg/kg/injection, schedule: Q01DX009 (ip), vehicle: saline with Tween-80, evaluated on day 60) 194 % of control; (dose: 75.0 mg/kg/injection, schedule: Q01DX009 (ip), vehicle: saline with Tween-80) 144 % of control. In addition, the T/C is 161, 194, 204, 210 (2×), 217, 240 % of control (dose: 90.0 mg/kg/injection, schedule: Q01DX009 (ip), vehicle: saline with Tween-80, evaluated on day 30); 125, 159, 185, 186, 192, 205 % of control (dose: 90.0 mg/kg/injection, schedule: Q01DX009 (ip), vehicle: saline with Tween-80, evaluated on day 45); 206 % of control (dose: 90.0 mg/kg/injection, schedule: Q01DX009 (ip), vehicle: saline with Tween-80, evaluated on day 60); 136 % of control under setting [2]; 128 and 186 % of control (dose: 130.0 mg/kg/injection, schedule: Q01DX009 (ip), vehicle: saline with Tween-80, evaluated on day 30); 100 and 211 % of control (dose: 130.0 mg/kg/injection, schedule: Q01DX009 (ip), vehicle: saline with Tween-80, evaluated on day 45). For the same compound, the T/C (dose: 130.0 mg/kg/injection, schedule: Q01DX009 (ip), vehicle: saline with Tween-80, evaluated on day 60) was 252 % of control. Further, the survivor count was 7 of 10 (dose: 16.0 mg/kg/injection, schedule: Q03HX016 (ip), vehicle: other); 7 of 10 (dose: 24.0 mg/kg/injection, schedule: Q01DX009 (ip), vehicle: other); 0 of 10 (dose: 32.0 mg/kg/injection, schedule: Q01DX005 (ip), vehicle: other); 4 of 5 (dose: 50.0 mg/kg/injection, schedule: Q01DX009 (ip), vehicle: distilled water + Tween-80); 4 of 10 (dose: 64.0 mg/kg/injection, schedule: Q04DX002 (ip), vehicle: other); 0 of 5 (dose: 100.0 mg/kg/injection, schedule: Q01DX009 (ip), vehicle: distilled water + Tween-80). The survivor count under setting [2] was 6 of 6 (2×); the survivor count (dose: 300.0 mg/kg/injection, schedule: Q04DX003 (ip), vehicle: saline with Tween-80) was 5 of 6; the survivor count (dose: 450.0 mg/kg/injection, schedule: Q04DX003 (ip), vehicle: saline with Tween-80) is given as 5 of 6.
As for `CCOC(=O)C(Cc1ccc(N(CCCl)CCCl)cc1)NC(=O)C(C)NC(C)=O` (stereo unspecified), the T/C (dose: 20.0 mg/kg/injection, schedule: Q04DX003 (ip), vehicle: water) was 127 and 128 % of control; the T/C (dose: 40.0 mg/kg/injection, schedule: Q04DX003 (ip), vehicle: water) was 136 % of control.
On to `CCCCCCCCCCCCCCC(O)C(=O)O` (stereo unspecified), for which the survivor count runs as follows: under setting [1], 6 of 6; under setting [2], 6 of 6.
As to `O=C1CC(c2ccc(Cl)cc2)C(c2ccc(Cl)cc2)C1=O` (stereo unspecified), the survivor count is given as 6 of 6 (dose: 50.0 mg/kg/injection, schedule: Q01DX001 (ip), vehicle: Klucel (hydroxypropylcellulose) (HPC)); 6 of 6 (dose: 100.0 mg/kg/injection, schedule: Q01DX001 (ip), vehicle: Klucel (hydroxypropylcellulose) (HPC)); 6 of 6 (dose: 200.0 mg/kg/injection, schedule: Q01DX001 (ip), vehicle: Klucel (hydroxypropylcellulose) (HPC)).
For the compound `CC1=CC[N+](C)(C)C(C(N)=O)C1` (stereo unspecified), the survivor count (dose: 200.0 mg/kg/injection, schedule: Q01DX005 (ip), vehicle: saline) is reported as 3 of 5.
In the case of `CC(C)c1nccn1Cc1ccccc1`, the survivor count (dose: 120.0 mg/kg/injection, schedule: Q01DX005 (ip), vehicle: saline) was 0 of 6 and the survivor count (dose: 240.0 mg/kg/injection, schedule: Q01DX005 (ip), vehicle: saline) was 0 of 6.
